{"source": "PubChem BioAssay AID1224826 (NIAID, 2016)", "screen": "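Genes that change LPS-induced Tnf promoter activity in mouse macrophages when knocked down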 (primary screen)", "system": "RAW264.7 G9 macrophages from mouse bearing reporters for p65 (GFP) and the Tnf promoter (mCherry)", "reagents": "siRNA pool against mouse genes, 100 nM", "timing": "16 h of LPS stimulation, after 2 days of siRNA transfection", "treatment": "bacterial lipopolysaccharide (Salmonella minnesota R595), 10 ng/ml", "measured": "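Nuclear mCherry signal of the Tnf promoter reporter measured by imaging after background removal, scaled to each plate median and turned into robust z-scores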", "reading the numbers": "Tnf reporter robust z-score: higher = stronger Tnf promoter reporter signal after LPS", "rule for the call": "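Called active when robust z-score is at most -1.3, matching the median of the Tlr4 knock-down control, or over 3; control wells and wells with under 50 cells never active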", "meaning of the calls": "active = Tnf reporter clearly lowered or raised; inactive = no clear change in Tnf reporter", "note": "Shown is an unselected part of about 17,000 deposited reagents. Of all reagents, about 1,110 (6.6%) got an active call. 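Active means lowered or raised reporter signal; replicate intensities are raw and not normalised per plate.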 Entries without a mark were called inactive. Some reagents were tested in more than one well and are listed for each. Not all columns of the deposit are shown."}
{"gene knocked down":"Slc25a22","Tnf reporter robust z-score":0.58,"fewer than 50 cells in well":"enough cells in well"}
{"gene knocked down":"Wtip","Tnf reporter robust z-score":0.63,"fewer than 50 cells in well":"enough cells in well"}
{"gene knocked down":"Ctf2","Tnf reporter robust z-score":1.47,"fewer than 50 cells in well":"enough cells in well"}
{"gene knocked down":"Tns1","Tnf reporter robust z-score":"-1.32 (active)","fewer than 50 cells in well":"enough cells in well"}
{"gene knocked down":"Tut4","Tnf reporter robust z-score":-0.27,"fewer than 50 cells in well":"enough cells in well"}
{"gene knocked down":"Idh3b","Tnf reporter robust z-score":0.07,"fewer than 50 cells in well":"enough cells in well"}
{"gene knocked down":"Vmn2r-ps11","Tnf reporter robust z-score":0.41,"fewer than 50 cells in well":"enough cells in well"}
{"gene knocked down":"Trit1","Tnf reporter robust z-score":0.09,"fewer than 50 cells in well":"enough cells in well"}
{"gene knocked down":"4930563M21Rik","fewer than 50 cells in well":"fewer than 50 cells per well; well left out of calls"}
{"gene knocked down":"Vipr1","Tnf reporter robust z-score":0.56,"fewer than 50 cells in well":"enough cells in well"}
{"gene knocked down":"Eaf1","Tnf reporter robust z-score":-0.92,"fewer than 50 cells in well":"enough cells in well"}
{"gene knocked down":"Or51h1","fewer than 50 cells in well":"fewer than 50 cells per well; well left out of calls"}
{"gene knocked down":"Hgfac","Tnf reporter robust z-score":-0.66,"fewer than 50 cells in well":"enough cells in well"}
{"gene knocked down":"Camk1","Tnf reporter robust z-score":0.91,"fewer than 50 cells in well":"enough cells in well"}
{"gene knocked down":"Or8g35","Tnf reporter robust z-score":0.56,"fewer than 50 cells in well":"enough cells in well"}

Copied from the list.
Result for Or51h1 under “fewer than 50 cells in well”: fewer than 50 cells per well; well left out of calls
Result of Tns1 in “Tnf reporter robust z-score”: -1.32 (active)
Under “Tnf reporter robust z-score”, Vipr1 shows 0.56
Tut4, Tnf reporter robust z-score = -0.27
Value for Camk1 in “Tnf reporter robust z-score”: 0.91

Next reagents follow:
{"gene knocked down":"Kif2b","Tnf reporter robust z-score":-0.39,"fewer than 50 cells in well":"enough cells in well"}
{"gene knocked down":"Ccm2l","Tnf reporter robust z-score":0.63,"fewer than 50 cells in well":"enough cells in well"}
{"gene knocked down":"Itgb2","Tnf reporter robust z-score":0.99,"fewer than 50 cells in well":"enough cells in well"}
{"gene knocked down":"Gpr119","Tnf reporter robust z-score":1.46,"fewer than 50 cells in well":"enough cells in well"}
{"gene knocked down":"Gpr119","Tnf reporter robust z-score":0.24,"fewer than 50 cells in well":"enough cells in well"}
{"gene knocked down":"Nkx3-1","Tnf reporter robust z-score":0.77,"fewer than 50 cells in well":"enough cells in well"}
{"gene knocked down":"Atm","Tnf reporter robust z-score":0.71,"fewer than 50 cells in well":"enough cells in well"}
{"gene knocked down":"Or5p60","Tnf reporter robust z-score":1.82,"fewer than 50 cells in well":"enough cells in well"}
{"gene knocked down":"Fastkd1","Tnf reporter robust z-score":0.37,"fewer than 50 cells in well":"enough cells in well"}
{"gene knocked down":"Sp8","Tnf reporter robust z-score":1.03,"fewer than 50 cells in well":"enough cells in well"}
{"gene knocked down":"Ear3","Tnf reporter robust z-score":-0.28,"fewer than 50 cells in well":"enough cells in well"}
{"gene knocked down":"Vmn1r219","Tnf reporter robust z-score":-1.26,"fewer than 50 cells in well":"enough cells in well"}
